Percent effect of library compounds

A: 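Growth of Mycobacterium tuberculosis over 3 days (7H9 medium with glucose and tyloxapol); the read-out is not stated. Tested at 500 µM. Direction is inferred from retests: higher values go with more growth inhibition. Of about 18,000 compounds tested this way, about 1,400 (7.9%) reached 50% or more in at least one test.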
B: 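Phenotypic screen: M. tuberculosis growth, cholesterol and DPPC medium, 4 days; the read-out is not stated. Concentration: 500 µM. Direction is inferred from retests: higher values go with more growth inhibition. Of about 18,000 compounds tested this way, about 900 (5%) reached 50% or more in at least one test.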

Values are the deposited “Percent Effect”, in %. How 0% and 100% were set is not recorded. Most values in the screen are low, and negative values occur. This is an unselected part of the compounds tested.

| structure | A | B |
|---|---|---|
| `OCCOCCn1cccn1` | 8.132 | -1.229 |
| `O=C(c1cccc2ncccc12)N1CCCC1` | -3.396 | 4.87 |
| `COCCN(C)CC(=O)N1CC[C@](C)(O)[C@H](C)C1` | 6.294 | 18.14 |
| `COc1cc(CNC(=O)NC2CCCC2)ccc1O` | 22.13 | 12.79 |
| `CN(C)c1ccc(NC(=O)C2CCC2)cn1` | -1111 | -1081 |
| `NCC(CO)Cc1ccccn1` (centres unmarked) | 11.87 | 11.55 |
| `COc1ccc(C)cc1Nc1ncnc(N)n1` | -0.4578 | 3.758 |
| `NCC1(OCCO)CCOCC1` | -6.434 | -7.31 |
| `CCn1ccnc1C1CCN(C(=O)CNC(N)=O)CC1` | 8.414 | 1.223 |
| `NS(=O)(=O)c1ccc(NC(=O)Oc2ccccc2)cc1` | 11.32 | 6.734 |
| `CCc1ccc(CN2CCC(O)(CN(C)C)C2)nc1` (centres unmarked) | 20.77 | -1.303 |
| `NS(=O)(=O)CCNC(=O)c1ccc(-c2cccs2)s1` | -1.578 | -25.58 |
| `O=C(Cc1ccc2c(c1)OCO2)N[C@@H]1CCOC[C@H]1O` | 3.408 | 0.495 |
| `CCC(=O)c1nccn1C` | -11.02 | -24.87 |
| `COCCN(CC(=O)NCc1ccco1)C(C)(C)CO` | 14.98 | -4.597 |
| `COCCN1CCCC(c2nccn2CCOC)C1` (centres unmarked) | 1.95 | -17.53 |
| `CC(C)(C)c1nnc(SCCC(N)=O)o1` | 2.154 | -1.491 |
| `Cc1cc(NC(=O)NC2CCN(CC(C)C)CC2)no1` | 2.556 | 3.753 |
| `CC(C)NC(=O)Cc1ccsc1` | 5.763 | -8.397 |
| `COC1CC(CCN)C1` (centres unmarked) | 10.02 | 5.751 |
| `Cc1cc(C(=O)NCC(CO)c2ccccc2)ns1` (centres unmarked) | 73.01 | 71.26 |
| `COc1ccc(Cl)cc1NC(=O)CN1CC(N(C)C)C1` | 0.8294 | -2.399 |
| `CC(CNC(=O)c1cccc(C#N)c1)N1CCCC1` (centres unmarked) | 26.63 | 1.212 |
| `CNC(=O)CCN1CCN(c2ccc(F)cc2Cl)CC1` | 2.511 | -1.779 |
| `CN1C(=O)c2cccn2CC1CNC(=O)c1ccco1` (centres unmarked) | 6.817 | 1.068 |
| `CC(C)c1noc(CCC(=O)NCc2cccnc2)n1` | -5.99 | 2.918 |
| `Nc1cnn(CC(=O)Nc2cccnc2)c1` | 16.17 | -0.7753 |
| `O=C(NCCn1ccnc1)c1cc2c([nH]c1=O)CCC2` | -0.0665 | 4.561 |
| `O=C(NC1CCN(C2CCSCC2)CC1)c1ccon1` | -24.51 | -26.21 |
| `COCCOCCCNC(=O)C(C)(C)n1cc(Br)cn1` | 16.27 | -0.9735 |
| `CCOC(=O)C1(CC2CC2)CCNCC1` | 18.61 | 10.81 |
| `CSC1=NCCN1C(=O)c1ccc(N2CCCC2)nc1` | 4.86 | 1.505 |
| `C[C@H](N)c1ccco1` | 11.44 | 5.323 |
| `CCNC(=O)C1CNC1` | -0.996 | 0.971 |
| `CN(C)S(=O)(=O)CCNC1CCCNC1` (centres unmarked) | 0.4429 | -24.29 |
| `NCc1cc2c(cc1Br)OCO2` | 14.04 | -8.771 |
| `O=C(N[C@@H]1CCNC[C@H]1O)c1ccc(Cl)cn1` | 1.833 | -7.915 |
| `COc1ccc(NS(=O)(=O)N(C)C)c(Br)c1` | 52.73 | 28.48 |
| `NCC(CO)Cc1cc(F)cc(Br)c1` (centres unmarked) | 64.69 | 43.7 |
| `NC(C(=O)N1CCOC2(CCC2)C1)c1ccccc1` (centres unmarked) | -16.42 | -4.572 |
| `CC(CO)(NCCCS(C)(=O)=O)C1CCCCC1` (centres unmarked) | -0.4461 | -0.8667 |
| `CSCCC(=O)NCc1ccccc1F` | 37.26 | 21.59 |
| `Cc1ccsc1CNC(=O)Cn1cc(F)ccc1=O` | 3.072 | -3.537 |
| `COCCN1C(=O)C[C@@H](CN)[C@@H]1c1cnn(C(C)C)c1` | -1.586 | -18.21 |
| `CCC[C@H]1CN(C(=O)c2ccc(C)cc2OC)C[C@@H]1N` | 24.06 | 22.25 |
| `CC(=O)NCCC(=O)NCC1(c2ccccc2)CC1` | 25.11 | 3.244 |
| `COCC(=O)NCc1noc(-c2cccc(C)c2)n1` | 49.98 | 30.66 |
| `Cc1cc(CN(C)C(=O)c2c(C)nn(C)c2Cl)no1` | -5.559 | -15.28 |
| `O=C1CCC(NC(=O)NCc2ccccc2F)CN1` (centres unmarked) | 6.921 | -13.16 |
| `N#Cc1ccc(OCCCN2CCNC(=O)C2)cc1` | 57.36 | 58.22 |
| `CN(Cc1cc(Cl)cn1C)C(=O)c1cnn(C)c1` | -1.258 | -6.967 |
| `Cc1cccc2nc(C(=O)NC(C)C)cn12` | 22.65 | 15.04 |
| `c1ccc(NCc2c[nH]nn2)cc1` | 14.37 | 6.728 |
| `c1cnc(N2CCN(Cc3cscn3)CC2)nc1` | 24.5 | -2.489 |
| `O=C1COc2ccc(S(=O)(=O)N3CCNCC3)cc2N1` | 14.97 | 4.198 |
| `Cc1cc(C(=O)NCCCN2CCN(C)CC2)on1` | -1.455 | -2.203 |
| `CC(CC(=O)N1CC[C@H](O)C1)c1cccc(F)c1` (some centres unmarked) | 7.588 | 1.03 |
| `COc1ccnc(C(=O)N(C)Cc2cnccn2)c1` | 9.012 | 7.225 |
| `CCc1cccc2c1OCCC2N` (centres unmarked) | 59.64 | 45.58 |
| `COc1cc(Br)ccc1CCCNC(=O)c1c[nH]nn1` | 18.58 | 89.35 |
| `CN(C)C(CN)c1cccc(F)c1` (centres unmarked) | 56.45 | 27.43 |
| `O=C(NCc1nc(C2CCCCC2)no1)C1CCOC1` (centres unmarked) | 26.51 | 23.12 |
| `CN(C)S(=O)(=O)NCC(O)c1ccc(Cl)c(F)c1` (centres unmarked) | 50.87 | 39.03 |
| `Cc1ccc(C#N)cc1S(=O)(=O)N1CCC[C@@H](N)C1` | -3.461 | -9.505 |
| `NC(=O)C1CCN(C(=O)NC2CCCCC2)CC1` | -14.15 | -13.92 |
| `c1ccc(N2CCCC2)nc1` | 6.088 | 5.601 |
| `CCCN(C(=O)c1ccc(Br)cn1)C1CCNC1` (centres unmarked) | -6.512 | -17.58 |
| `COCCNC(=O)NC(C)CCc1ccc(O)cc1` (centres unmarked) | 15.2 | 34.13 |
| `CC(=O)NCC1CN(CC2CC2)CCO1` (centres unmarked) | -7.263 | -14 |
| `Cc1cnc(C)c(NC(C)Cn2cncn2)n1` (centres unmarked) | -4.228 | -14.9 |
| `O=C1CCN(C(=O)c2sccc2Br)CCN1` | 9.403 | -3.731 |
| `CC1CCCc2nccn21` (centres unmarked) | -0.7317 | 0.9848 |
| `Cc1cccc(C(=O)NCC(=O)NC(C#N)C2CC2)c1` (centres unmarked) | -0.8916 | -5.353 |
| `O=c1cc(CO)nc2ccccn12` | -4.48 | -10.1 |
| `COc1ccccc1NC(=O)Cn1ccnc1` | 10.8 | 9.446 |
| `NCC(O)c1ccc(Cl)cc1Cl` (centres unmarked) | 59.77 | 39.93 |
| `COc1ccc(C(CN)CO)cc1OC` (centres unmarked) | 3.841 | -2.402 |
| `Cc1cc(Br)cc(C(=O)OC(C)C(N)=O)c1` (centres unmarked) | -4.594 | -12.85 |
| `CNC(=O)CSc1nnc(N)n1C1CC1` | -12.85 | -17.25 |
| `CCC(Cn1ccnc1)NC(=O)c1cnc(SC)nc1` (centres unmarked) | 9.804 | 2.698 |
| `Cc1ccc(C(O)c2cccnc2)cc1` (centres unmarked) | 57.19 | 37.59 |
| `Cc1nn(C)c(C)c1NC(=O)NCC(O)c1ccco1` (centres unmarked) | 2.295 | 3.672 |
| `CCCc1ccc(CN2CCOCC(CO)C2)o1` (centres unmarked) | 4.055 | -4.582 |
| `CC(C)N(CC(N)=O)CC(=O)N(C1CCCC1)C1CC1` | 9.55 | -11.53 |

Source: ChEMBL document CHEMBL3988442, “University of Dundee, Small-Polar-MMV Screening Library” (2021).